Some of the results follow. Residues, ends and D or L forms follow the SMILES beside them. *: point of attachment. Cbz = O=C(OCc1ccccc1)*

By UniProt entry, the sequences of proteins in these tests, tags left out. Where a name states a change or a piece, a line headed by the entry shows the natural chain unless it says otherwise.
UniProt P0CK96: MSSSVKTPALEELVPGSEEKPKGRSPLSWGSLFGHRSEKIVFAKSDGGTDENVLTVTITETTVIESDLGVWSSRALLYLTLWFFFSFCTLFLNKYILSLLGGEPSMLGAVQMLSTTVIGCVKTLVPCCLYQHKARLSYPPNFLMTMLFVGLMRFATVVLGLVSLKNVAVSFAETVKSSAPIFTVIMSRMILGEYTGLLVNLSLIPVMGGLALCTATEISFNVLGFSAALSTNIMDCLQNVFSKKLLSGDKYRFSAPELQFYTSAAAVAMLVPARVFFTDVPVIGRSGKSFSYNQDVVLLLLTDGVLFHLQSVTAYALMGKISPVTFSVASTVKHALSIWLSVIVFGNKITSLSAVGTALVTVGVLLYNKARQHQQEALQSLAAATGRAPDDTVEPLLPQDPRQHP
UniProt Q96DW6: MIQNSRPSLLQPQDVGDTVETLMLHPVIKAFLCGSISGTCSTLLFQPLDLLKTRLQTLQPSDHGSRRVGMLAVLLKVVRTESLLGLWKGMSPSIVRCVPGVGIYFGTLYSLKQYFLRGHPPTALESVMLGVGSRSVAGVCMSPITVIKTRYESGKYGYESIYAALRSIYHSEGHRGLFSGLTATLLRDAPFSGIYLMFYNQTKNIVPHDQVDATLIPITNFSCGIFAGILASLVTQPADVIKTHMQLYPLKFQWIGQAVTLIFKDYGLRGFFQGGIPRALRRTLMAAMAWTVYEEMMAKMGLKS
UniProt Q6P1K1: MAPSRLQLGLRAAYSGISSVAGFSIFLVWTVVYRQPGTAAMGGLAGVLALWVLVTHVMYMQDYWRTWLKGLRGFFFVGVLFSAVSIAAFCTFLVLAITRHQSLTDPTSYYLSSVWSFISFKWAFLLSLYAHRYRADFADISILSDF
UniProt P78382: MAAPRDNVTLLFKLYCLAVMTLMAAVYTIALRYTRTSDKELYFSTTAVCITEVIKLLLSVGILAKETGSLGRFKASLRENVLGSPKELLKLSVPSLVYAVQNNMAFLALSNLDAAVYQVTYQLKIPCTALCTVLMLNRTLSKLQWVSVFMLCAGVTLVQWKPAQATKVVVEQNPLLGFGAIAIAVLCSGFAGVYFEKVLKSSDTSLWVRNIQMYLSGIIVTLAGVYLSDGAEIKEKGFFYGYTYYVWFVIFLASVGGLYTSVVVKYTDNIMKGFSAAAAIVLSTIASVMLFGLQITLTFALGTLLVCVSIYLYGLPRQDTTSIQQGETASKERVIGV
UniProt Q8N697: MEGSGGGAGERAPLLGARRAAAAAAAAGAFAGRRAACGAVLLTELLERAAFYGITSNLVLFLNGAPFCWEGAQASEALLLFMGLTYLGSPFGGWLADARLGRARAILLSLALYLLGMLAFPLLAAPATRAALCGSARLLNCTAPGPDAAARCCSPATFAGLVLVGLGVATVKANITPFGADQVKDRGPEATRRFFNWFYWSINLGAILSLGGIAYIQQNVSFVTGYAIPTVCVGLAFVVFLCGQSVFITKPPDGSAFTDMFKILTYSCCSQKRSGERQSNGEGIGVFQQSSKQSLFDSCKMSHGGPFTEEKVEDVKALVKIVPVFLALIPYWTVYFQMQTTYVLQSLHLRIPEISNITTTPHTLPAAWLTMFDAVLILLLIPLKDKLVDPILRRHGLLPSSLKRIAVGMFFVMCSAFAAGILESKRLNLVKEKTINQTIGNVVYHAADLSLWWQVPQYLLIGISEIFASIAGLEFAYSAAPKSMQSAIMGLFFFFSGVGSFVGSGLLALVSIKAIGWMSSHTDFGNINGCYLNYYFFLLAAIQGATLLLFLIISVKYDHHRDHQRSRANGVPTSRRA
UniProt P04920: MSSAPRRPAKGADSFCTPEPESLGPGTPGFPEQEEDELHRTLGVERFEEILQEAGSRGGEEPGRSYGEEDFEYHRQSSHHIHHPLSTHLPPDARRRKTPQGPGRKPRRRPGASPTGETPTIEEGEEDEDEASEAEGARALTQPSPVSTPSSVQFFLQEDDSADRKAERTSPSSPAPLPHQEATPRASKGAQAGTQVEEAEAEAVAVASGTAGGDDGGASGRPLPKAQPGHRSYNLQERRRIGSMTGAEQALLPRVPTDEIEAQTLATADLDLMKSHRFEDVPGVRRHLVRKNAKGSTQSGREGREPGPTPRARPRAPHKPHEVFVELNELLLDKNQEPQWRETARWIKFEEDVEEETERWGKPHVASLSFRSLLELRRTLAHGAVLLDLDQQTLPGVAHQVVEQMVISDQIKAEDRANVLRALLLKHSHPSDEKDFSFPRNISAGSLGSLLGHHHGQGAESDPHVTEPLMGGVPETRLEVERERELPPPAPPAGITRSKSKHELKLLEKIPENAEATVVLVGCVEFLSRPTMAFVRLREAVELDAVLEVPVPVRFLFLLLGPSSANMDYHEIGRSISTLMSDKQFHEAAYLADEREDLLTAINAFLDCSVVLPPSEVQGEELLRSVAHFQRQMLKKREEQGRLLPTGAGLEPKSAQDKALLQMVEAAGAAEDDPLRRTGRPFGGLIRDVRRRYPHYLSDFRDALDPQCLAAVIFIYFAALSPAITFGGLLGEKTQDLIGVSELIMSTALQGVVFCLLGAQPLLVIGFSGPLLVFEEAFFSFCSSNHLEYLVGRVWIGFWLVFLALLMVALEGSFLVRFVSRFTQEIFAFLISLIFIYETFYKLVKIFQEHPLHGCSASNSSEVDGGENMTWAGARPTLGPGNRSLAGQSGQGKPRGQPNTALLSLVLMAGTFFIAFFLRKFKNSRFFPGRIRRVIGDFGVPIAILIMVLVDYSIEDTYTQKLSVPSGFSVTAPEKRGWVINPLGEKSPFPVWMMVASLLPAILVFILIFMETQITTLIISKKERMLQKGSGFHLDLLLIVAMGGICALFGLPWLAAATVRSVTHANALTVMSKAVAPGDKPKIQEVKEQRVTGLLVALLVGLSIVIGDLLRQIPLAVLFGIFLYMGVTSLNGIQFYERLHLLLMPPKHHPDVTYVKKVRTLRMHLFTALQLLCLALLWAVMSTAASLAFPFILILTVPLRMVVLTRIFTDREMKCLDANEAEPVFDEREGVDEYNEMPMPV
UniProt Q86VD7: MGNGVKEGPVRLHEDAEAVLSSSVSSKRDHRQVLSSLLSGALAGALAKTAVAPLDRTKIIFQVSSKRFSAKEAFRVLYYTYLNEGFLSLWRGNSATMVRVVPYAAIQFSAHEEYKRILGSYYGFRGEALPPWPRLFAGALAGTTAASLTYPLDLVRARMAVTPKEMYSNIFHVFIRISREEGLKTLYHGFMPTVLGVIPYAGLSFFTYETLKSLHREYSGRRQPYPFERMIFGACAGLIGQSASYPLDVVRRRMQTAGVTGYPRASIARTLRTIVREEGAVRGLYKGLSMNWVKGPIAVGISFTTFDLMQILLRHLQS
UniProt P78383: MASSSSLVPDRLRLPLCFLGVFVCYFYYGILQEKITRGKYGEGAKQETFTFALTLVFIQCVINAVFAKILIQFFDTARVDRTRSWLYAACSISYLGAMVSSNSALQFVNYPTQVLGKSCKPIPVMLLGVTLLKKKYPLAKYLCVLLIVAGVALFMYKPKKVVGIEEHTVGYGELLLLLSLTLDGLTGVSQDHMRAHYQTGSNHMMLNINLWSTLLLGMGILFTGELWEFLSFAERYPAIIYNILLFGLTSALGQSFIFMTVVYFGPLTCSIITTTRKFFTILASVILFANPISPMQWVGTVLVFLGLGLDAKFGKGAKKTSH
UniProt Q96QD8: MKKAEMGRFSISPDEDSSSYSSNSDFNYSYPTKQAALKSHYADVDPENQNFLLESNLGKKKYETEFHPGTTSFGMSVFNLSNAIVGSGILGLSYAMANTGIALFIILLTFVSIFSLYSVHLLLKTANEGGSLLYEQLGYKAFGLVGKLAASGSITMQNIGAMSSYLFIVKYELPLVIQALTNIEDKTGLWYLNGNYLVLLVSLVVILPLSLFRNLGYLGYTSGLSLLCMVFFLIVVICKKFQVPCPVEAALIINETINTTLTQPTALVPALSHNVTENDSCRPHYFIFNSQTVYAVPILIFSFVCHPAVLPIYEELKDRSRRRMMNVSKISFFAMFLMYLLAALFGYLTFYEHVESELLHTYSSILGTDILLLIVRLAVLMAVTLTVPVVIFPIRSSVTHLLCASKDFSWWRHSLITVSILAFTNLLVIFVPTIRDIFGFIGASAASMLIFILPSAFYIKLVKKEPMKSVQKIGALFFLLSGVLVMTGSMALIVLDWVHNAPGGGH
UniProt Q14493, whole entry, looked up: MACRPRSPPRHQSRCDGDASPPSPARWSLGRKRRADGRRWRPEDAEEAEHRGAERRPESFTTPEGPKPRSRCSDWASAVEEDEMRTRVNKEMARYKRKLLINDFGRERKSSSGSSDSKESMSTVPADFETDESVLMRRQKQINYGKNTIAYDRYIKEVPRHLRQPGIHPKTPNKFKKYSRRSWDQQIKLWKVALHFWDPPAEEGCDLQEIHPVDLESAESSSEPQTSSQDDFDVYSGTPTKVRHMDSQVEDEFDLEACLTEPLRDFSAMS
UniProt Q96H78: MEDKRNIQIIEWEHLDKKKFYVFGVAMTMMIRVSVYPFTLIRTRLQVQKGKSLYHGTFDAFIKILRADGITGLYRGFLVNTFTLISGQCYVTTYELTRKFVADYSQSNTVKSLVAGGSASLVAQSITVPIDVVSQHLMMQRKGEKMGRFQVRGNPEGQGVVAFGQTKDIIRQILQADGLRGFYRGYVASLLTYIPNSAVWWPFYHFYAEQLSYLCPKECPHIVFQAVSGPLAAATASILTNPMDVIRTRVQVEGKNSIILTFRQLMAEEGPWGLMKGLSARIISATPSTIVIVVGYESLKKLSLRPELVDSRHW
UniProt Q9BRY0: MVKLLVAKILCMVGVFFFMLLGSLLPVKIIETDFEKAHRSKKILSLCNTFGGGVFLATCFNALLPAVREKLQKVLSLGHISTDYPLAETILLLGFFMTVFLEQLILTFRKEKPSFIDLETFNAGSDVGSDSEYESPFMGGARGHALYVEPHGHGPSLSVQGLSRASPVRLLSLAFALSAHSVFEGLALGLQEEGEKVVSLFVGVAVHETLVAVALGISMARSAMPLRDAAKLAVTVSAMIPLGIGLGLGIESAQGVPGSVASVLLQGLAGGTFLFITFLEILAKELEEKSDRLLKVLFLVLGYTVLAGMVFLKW
UniProt O60779: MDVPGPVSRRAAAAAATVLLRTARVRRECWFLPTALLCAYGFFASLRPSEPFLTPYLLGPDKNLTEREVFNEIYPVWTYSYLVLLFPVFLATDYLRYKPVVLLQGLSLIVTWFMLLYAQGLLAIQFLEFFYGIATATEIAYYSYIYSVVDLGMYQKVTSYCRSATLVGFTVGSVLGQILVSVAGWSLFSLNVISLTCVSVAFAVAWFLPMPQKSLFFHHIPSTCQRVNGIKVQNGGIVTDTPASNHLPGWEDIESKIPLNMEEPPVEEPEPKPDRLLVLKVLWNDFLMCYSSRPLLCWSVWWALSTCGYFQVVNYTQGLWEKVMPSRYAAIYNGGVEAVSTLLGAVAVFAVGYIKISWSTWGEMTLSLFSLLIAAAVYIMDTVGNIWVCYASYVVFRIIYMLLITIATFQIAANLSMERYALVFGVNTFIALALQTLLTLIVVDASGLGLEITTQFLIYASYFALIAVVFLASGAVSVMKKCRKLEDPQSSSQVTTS
UniProt Q96NT5: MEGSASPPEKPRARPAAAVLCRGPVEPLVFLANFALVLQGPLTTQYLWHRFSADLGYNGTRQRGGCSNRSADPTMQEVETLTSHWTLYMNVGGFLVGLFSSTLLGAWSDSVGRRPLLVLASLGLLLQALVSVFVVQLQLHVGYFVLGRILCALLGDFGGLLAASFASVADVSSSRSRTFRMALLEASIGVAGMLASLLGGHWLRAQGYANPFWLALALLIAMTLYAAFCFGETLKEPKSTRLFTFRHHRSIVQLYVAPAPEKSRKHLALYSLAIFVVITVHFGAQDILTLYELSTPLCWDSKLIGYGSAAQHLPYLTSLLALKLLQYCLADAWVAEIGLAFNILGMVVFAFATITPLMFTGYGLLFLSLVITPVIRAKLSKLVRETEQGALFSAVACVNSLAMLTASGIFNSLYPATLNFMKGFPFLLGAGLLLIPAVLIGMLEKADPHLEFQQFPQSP
UniProt P43003, whole entry, looked up: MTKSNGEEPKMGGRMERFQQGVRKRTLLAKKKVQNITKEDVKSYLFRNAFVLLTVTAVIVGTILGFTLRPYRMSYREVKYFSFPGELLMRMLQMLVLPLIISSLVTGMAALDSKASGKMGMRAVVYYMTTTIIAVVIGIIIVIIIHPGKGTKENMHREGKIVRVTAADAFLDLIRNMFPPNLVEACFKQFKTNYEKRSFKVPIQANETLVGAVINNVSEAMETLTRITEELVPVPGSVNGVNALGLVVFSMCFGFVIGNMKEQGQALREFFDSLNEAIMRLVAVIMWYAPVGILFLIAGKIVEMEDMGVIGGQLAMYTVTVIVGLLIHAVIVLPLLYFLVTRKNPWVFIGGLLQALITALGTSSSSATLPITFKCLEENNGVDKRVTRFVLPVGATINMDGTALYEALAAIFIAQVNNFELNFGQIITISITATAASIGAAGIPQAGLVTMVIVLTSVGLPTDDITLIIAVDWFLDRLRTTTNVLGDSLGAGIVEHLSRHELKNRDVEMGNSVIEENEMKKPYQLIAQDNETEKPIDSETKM

Assay in all cases: log2 fold change, soluble protein after heating vs DMSO (PISA); higher = thermal stabilisation; K562 cells, 10 uM, 30 min; active = over 0.2 and 3.5 SD of the protein, either way, in both replicates (recomputed)
Compound in assay [1]: C1COCCN1CCN2C3=CC=CC=C3N=C2NC(=O)C4=CC(=CC=C4)[N+](=O)[O-] [IRAK-1-4 Inhibitor I]
In outline:
(§1)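 K562 cells (2×10^6 cells/mL) were treated with 10 μM compound for 30 min, and aliquots were heated for 3 min over 48°C-58°C. Pooled aliquots were extracted in PBS with 0.5% NP-40 at 4°C, and the supernatant after 21,000xg for 90 min was measured by TMTpro 16plex LC-MS/MS with channel sums equalised. Reported thermal stability, relative to control samples and from duplicates, is a log2 fold change.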

Compound in assay [2]: C=CC(=O)N1CCC[C@@H](n2nc(-c3ccc(Oc4ccccc4)cc3)c3c(N)ncnc32)C1 [ibrutinib]
The method in brief:
as §1

Compound in assay [3]: CC(C)(C)Cn1c(N)nc2ccc(-c3[nH]c(C(C)(C)C)nc3-c3ccc(F)cc3)nc21 [ralimetinib]
In outline: as §1

Compound in assay [4]: CC(C)C[C@@H](C=O)NC(=O)[C@H](CC(C)C)NC(=O)[C@H](CC(C)C)NC(=O)OCc1ccccc1
The method in brief:
as §1

Compound in assay [5]: CC(C)N(C[C@H]1O[C@@H](n2cnc3c(N)ncnc32)[C@H](O)[C@@H]1O)[C@H]1C[C@@H](CCc2nc3cc(C(C)(C)C)ccc3[nH]2)C1 [pinometostat]
The method in brief:
as §1

Compound in assay [6]: CC(=O)c1cnc2ccc(-c3cc(Cl)c(O)c(Cl)c3)nc2c1N[C@H]1CC[C@H](CN(C)C)CC1
In outline: as §1

Compound in assay [7]: CC(C)(O)CC(=O)NCCn1ccc2ncnc(Nc3ccc(Oc4cccc(C(F)(F)F)c4)c(Cl)c3)c21
The method in brief: as §1

Compound in assay [8]: CC(C)C1=C2N=C(C=C(N2N=C1)NCC3=CC=CC=C3)NCCCCCCN
In outline:
as §1

Compound in assay [9]: CC1=C(C(CC(=O)N1)C2=CC=C(C=C2)C(F)(F)F)C(=O)NC3=C(C=C4C(=C3)C=NN4)F
In outline: as §1

Compound in assay [10]: CC1=C(C2=C(C=C1)C(=O)C3=CC=CC=C3N2CCCN)C
The method in brief:
as §1

As to SLC35E2B (UniProt P0CK96), the log2 fold change in assay [1] was inactive: -0.019; in [2], inactive: 0.009; in [3], inactive: -0.095; in assay [4] it was inactive: -0.018; in [5] it was inactive: 0.012.

SLC41A3 isoform 9 (UniProt Q96GZ6): the log2 fold change was inactive: -0.103 in assay [1]; inactive: -0.103 in assay [2]; inactive: -0.092 in assay [6]; inactive: -0.034 in assay [7]; inactive: 0 in assay [8]; inactive: 0.184 in assay [5]. For the same target, the log2 fold change in assay [9] was inactive: 0.128; in assay [10], inactive: 0.045.

In the case of SLC44A2 isoform 2 (UniProt Q8IWA5), the log2 fold change in assay [1] is inactive: 0.092; in assay [2], inactive: 0.055; in assay [6], inactive: 0.034; in assay [3], inactive: -0.128; in assay [7] it was inactive: -0.006; in assay [8], active: 0.296. In addition, the log2 fold change in assay [4] was inactive: -0.047; in assay [5], inactive: 0.056; in assay [10], inactive: 0.034.

Consider SLC25A38 (UniProt Q96DW6), for which the log2 fold change was inactive: 0.005 in [1]; inactive: -0.001 in assay [2]; inactive: 0.003 in [6]; inactive: -0.053 in assay [3]; inactive: 0.035 in assay [7]; inactive: 0.049 in assay [8]. Also, the values for the log2 fold change in assay [4], in [5] and in [10] were inactive: -0.018, inactive: -0.03 and inactive: 0.01, respectively.

SLC48A1 (UniProt Q6P1K1): the log2 fold change in assay [1] was inactive: 0.081; in [2] it was inactive: 0.144; in assay [3] it was inactive: 0.158; in assay [8], inactive: -0.467; in assay [4], inactive: -0.061; in [5], inactive: 0.156. The log2 fold change in [9] was inactive: -0.155.

As for SLC35A1 (UniProt P78382), the log2 fold change in assay [1] is inactive: -0.057; in [2] it was inactive: 0.119; in assay [6], inactive: -0.027; in assay [3], inactive: -0.049; in assay [7], inactive: -0.056; in [8] it was inactive: 0.066. For the same target, the log2 fold change in assay [4] was inactive: 0.007; in assay [5], inactive: -0.055; in assay [10], inactive: 0.138.

Turning to SLC15A4 (UniProt Q8N697), the log2 fold change in assay [1] was inactive: 0.119; in [2], inactive: -0.066; in assay [6], inactive: -0.003; in [3], inactive: 0; in assay [8] it was inactive: -0.087; in assay [4], inactive: -0.011. Further, the log2 fold change was inactive: -0.019 in assay [5], inactive: -0.132 in [9] and inactive: 0.016 in assay [10].

On to SLC4A2 (UniProt P04920), for which the log2 fold change is inactive: 0.022 in assay [1]; inactive: -0.024 in assay [2]; inactive: -0.015 in assay [6]; inactive: 0.003 in assay [3]; inactive: -0.07 in [7]; inactive: -0.165 in [8]. Further, the log2 fold change was inactive: 0.143 in [4], inactive: 0.054 in assay [5] and inactive: 0.01 in assay [10].

With SLC25A42 (UniProt Q86VD7), the log2 fold change in assay [1] is inactive: 0.034; in [2], inactive: 0.045; in assay [6], inactive: -0.002; in assay [3], inactive: 0.041; in assay [7], inactive: 0.015; in assay [8] it was inactive: 0.014. In addition, the log2 fold change in assay [4] is inactive: -0.037; in [5], inactive: -0.027; in [10], inactive: 0.077.

SLC30A7 (UniProt Q8NEW0): the log2 fold change was inactive: 0.035 in [1]; inactive: 0.063 in assay [2]; inactive: 0.032 in assay [6]; inactive: -0.098 in assay [3]; inactive: -0.075 in [7]; inactive: -0.186 in assay [8]. Besides, the log2 fold change is inactive: 0.011 in assay [4], inactive: -0.007 in assay [5] and inactive: 0.06 in assay [10].

Consider SLC35B1 isoform 2 (UniProt P78383), for which the log2 fold change was inactive: -0.067 in assay [1]; inactive: 0.09 in [2]; inactive: -0.184 in assay [3]; inactive: -0.217 in assay [7]; inactive: -0.04 in [8]; inactive: 0.038 in assay [4]. Moreover, the log2 fold change is inactive: 0.065 in [5] and inactive: 0.011 in assay [10].

Take SLC38A2 (UniProt Q96QD8): the log2 fold change in assay [1] is inactive: 0.018; in [2], inactive: 0.022; in assay [6], inactive: -0.057; in assay [3], inactive: -0.097; in [7], inactive: -0.12; in [8] it was active: -0.28. The log2 fold change in assay [4] was inactive: 0.102; in [5], inactive: -0.053; in assay [10], inactive: 0.01.

As for SLBP (UniProt Q14493), the log2 fold change is inactive: -0.123 in [1]; inactive: -0.162 in assay [2]; active: -0.38 in assay [6]; inactive: -0.068 in assay [3]; inactive: -0.09 in [7]; inactive: -0.206 in assay [8]. For the same target, the log2 fold change in [4] was inactive: 0.162; in assay [5], inactive: -0.034; in [10] it was inactive: -0.126.

For SLC25A44 (UniProt Q96H78), the log2 fold change is inactive: 0.028 in assay [1]; inactive: 0.032 in [2]; inactive: 0.021 in assay [6]; inactive: 0.054 in assay [7]; inactive: 0.003 in assay [5]; inactive: 0.014 in [9]. In addition, the log2 fold change in assay [10] is inactive: 0.039.

As for SLC39A3 (UniProt Q9BRY0), the log2 fold change in assay [2] is inactive: -0.055; in assay [6], inactive: -0.292; in assay [3] it was inactive: -0.168; in [7] it was inactive: -0.014; in assay [8] it was inactive: 0.049; in assay [4], inactive: -0.052. Moreover, the figures for the log2 fold change in [9] and in assay [10] were inactive: 0.008 and inactive: 0.23, respectively.

In the case of SLC19A2 (UniProt O60779), the log2 fold change is inactive: 0.098 in assay [1]; inactive: -0.103 in assay [6]; inactive: 0.055 in [3]; inactive: 0.156 in assay [7]; inactive: -0.008 in [8]; inactive: -0.12 in assay [4]. Further, the log2 fold change in assay [5] is inactive: -0.002; in assay [9] it was inactive: 0.259; in [10], inactive: 0.105.

Consider SLC46A1 (UniProt Q96NT5), for which the log2 fold change in assay [6] is inactive: -0.008; in assay [8], inactive: -0.04; in [10] it was inactive: -0.049.

SLC43A3 (UniProt Q8NBI5): the log2 fold change in assay [7] was inactive: -0.093.

Take SLC26A11 (UniProt I3L0N9): the log2 fold change in assay [2] was inactive: -0.12.

With SLC35A5 (UniProt Q9BS91), the log2 fold change in [6] is inactive: 0.027; in assay [7] it was inactive: -0.114; in assay [8], inactive: -0.016; in assay [10], inactive: 0.003.

For the target SLC1A3 (UniProt P43003), the log2 fold change in [2] was inactive: 0.168; in assay [6], inactive: 0.056; in assay [3], inactive: 0.058; in assay [7], inactive: 0.007; in assay [8] it was inactive: 0.238; in [4], inactive: -0.064. For the same target, the log2 fold change in assay [10] was inactive: 0.029.

These data come from the supplement of paper PMC10849652.
